Several values for one entry are separate records, joined by “and”; a condition that tells them apart may be missing. Equal entries are not always repeated. This is one part of the list. Further columns of the screen follow, without active or inactive calls. The list favours compounds with an active or inconclusive main result. Potencies come from curve fits of mixed quality, noted in brackets.

Data on 36 compounds can be found in PubChem BioAssay AID1487 (National Center for Advancing Translational Sciences (NCATS), 2009).

This experiment is described as follows: qHTS Assay for Modulators of Lamin A Splicing. The note with it: HeLa LMNA splicing GFP/RFP minigene ratio, 48 h. The method, boiled down:
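Read-out is the ratio of GFP to DsRed2 object intensity, acquired by 488 nm laser-scanning cytometry on HeLa lamin A-EGFP minigene reporter cells. Compound incubation 48 hrs at 37 °C in Opti-MEM with 2% FBS; DMSO 0.5% final.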
(In general: In qHTS, concentration-response curves come from the screen itself.)

[1] abbreviates: measured here: GFP splicing reporter channel.
Where [2] appears, read: measured here: RFP viability control channel.

For the compound `O=C(NCc1ccccn1)c1cc(-c2ccc(Cl)cc2)nc2ccccc12`, the AC50 (commonly the midpoint of the concentration-response curve, whichever way the signal moves) is 35.5 µM [rising, single point] under setting [1] and 20 µM [rising, single point] under setting [2]. Regarding `O=C(N/N=C/c1cc(Br)cs1)c1ccccc1[N+](=O)[O-]`, the AC50 under setting [2] was 12.6 µM [rising, partial curve].

For the compound `COc1cc(C=C(c2nc3ccccc3s2)c2nc3ccccc3s2)ccc1O`, under setting [2], the AC50 was 15.8 µM [rising, partial curve]. Take `CCn1c(COc2cc(C)cc(C)c2)nnc1SCC(=O)N1CCN(c2ccccc2)CC1`: the AC50 under setting [2] is 10 µM [rising, partial curve, poor fit].

In the case of `COc1cc(C(=O)OCC(=O)Nc2sccc2C(N)=O)cc(OC)c1OC`, the AC50 under setting [2] is 3.16 µM [rising, full curve]. Take `CCN1CCN(C(c2ccc(F)cc2)c2c(O)cc(C)n(CCOC)c2=O)CC1` (configuration not stated): the AC50 under setting [1] was 0.562 µM [rising, full curve, poor fit] and the AC50 under setting [2] is 2.82 µM [rising, single point]. On to `CCC(=O)Oc1c(S(=O)(=O)c2ccc(C)cc2)c(C)nn1C(C)(C)C`, for which the AC50 is, setting by setting: under setting [1], 15.8 µM [rising, single point]; under setting [2], 22.4 µM [rising, single point]. For `CC(C)(C)NC(=O)CSc1nc2scc(-c3ccccc3)c2c(=O)[nH]1`, the concentration at half-maximal activity (AC50) under setting [1] is 35.5 µM [rising, single point].

As to `Cc1cc(C(=O)CSc2nc(N)cc(=O)[nH]2)c(C)n1CCc1ccc(F)cc1`, the AC50 reads like this: under setting [1], 2.82 µM [rising, partial curve]; under setting [2], 6.31 µM [rising, full curve]. As to `CNC(=O)c1cc2c(=O)n3cc(C)ccc3nc2n(Cc2ccco2)c1=N`, under setting [2], the AC50 is 10 µM [rising, partial curve]. For `Cc1ccc(S(=O)(=O)N[C@@H](C)C(=O)N2CCC(C(=O)N3CCC[C@H]3C(=O)O)CC2)cc1`, under setting [1], the AC50 is 2.24 µM [rising, partial curve, poor fit]. On to `COc1ccc(/C=C/C(=O)NC2CCCCCCC2)cc1S(=O)(=O)N1CCOCC1`, for which, under setting [2], the AC50 was 12.6 µM [rising, single point]. In the case of `Cc1ccc(/C=N/NC(=O)C2=NNC(c3ccccc3)(c3ccccc3)C2)c(O)c1`, the AC50 under setting [2] was 17.8 µM [rising, partial curve]. `COc1ccc(C2=CC(c3ccc(OC)c(OC)c3)NC(=S)N2)cc1` (configuration not stated): the AC50 under setting [1] is 0.708 µM [rising, full curve, poor fit]. On the same count and under the same terms, to `CN(C)c1ccc(CNS(=O)(=O)c2ccc3[nH]c4c(c3c2)CCCCC4)cc1` belongs 4.47 µM [falling, full curve]. As to `COc1ccc(Nc2nnc(SCC(=O)c3cc(C)n(CC4CCCO4)c3C)s2)cc1` (configuration not stated), the AC50 by setting is: under setting [1], 31.6 µM [falling, single point]; under setting [2], 5.62 µM [falling, single point].

As for `COc1ccc(C(=O)/C=C/c2ccc(OC)c(COc3ccc(F)cc3)c2)cc1`, the AC50 under setting [1] was 2.24 µM [rising, partial curve].

On to `Cc1cccc(Nc2nnc(-c3ccc(N4CCOCC4)c([N+](=O)[O-])c3)c3ccccc23)c1`, for which the AC50 under setting [2] was 31.6 µM [rising, single point]. For `Clc1ccccc1C(c1ccccc1)(c1ccccc1)n1ccnc1`, the AC50 runs as follows: under setting [1], 3.16 µM [falling, partial curve] and 17.8 µM [falling, partial curve, poor fit]; under setting [2], 4.47 nM [rising, full curve, poor fit] and 25.1 µM [falling, partial curve].

In the case of `NC(=O)NO`, the AC50 under setting [1] is 10 µM [falling, partial curve]. With `CO/N=C1\CN(c2nc3c(cc2F)c(=O)c(C(=O)O)cn3C2CC2)CC1CN` (configuration not stated), the AC50 was 11.2 µM [falling, partial curve] under setting [1] and 0.631 µM [rising, single point] under setting [2].

For the compound `NNC(=O)CN1C(c2ccccc2Br)=Nc2ccc(Br)cc2C1c1ccccc1` (configuration not stated), the AC50 under setting [2] was 15.8 µM [rising, partial curve].

For the compound `COc1cc(/C=C(\C#N)C(N)=O)ccc1OCc1c(C)no[n+]1[O-]`, the AC50 under setting [2] was 35.5 µM [falling, single point].

Take `O=C(Oc1ccc(C(=S)N2CCOCC2)cc1Br)c1ccccc1F`: the AC50 under setting [1] is 35.5 µM [rising, single point]. As for `O=[N+]([O-])c1ccc(O)c(/C=N/Nc2ccc(Cl)nn2)c1`, the AC50 reads like this: under setting [1], 0.355 µM [falling, full curve]; under setting [2], 0.316 µM [falling, full curve].

With `NNC(=O)CN1C(c2ccc(Br)cc2)=Nc2ccc(Br)cc2C1c1ccccc1` (configuration not stated), under setting [2], the AC50 was 11.2 µM [rising, single point]. Take `CCC(=O)Nc1ccc(NC(=S)NC(=O)/C=C/c2ccccc2)cc1`: the AC50 under setting [2] is 14.1 µM [rising, partial curve, poor fit]. With `Cc1ncoc1C(=O)Nc1cccc(Cl)c1`, the AC50 was 15.8 µM [rising, single point] under setting [1] and 22.4 µM [rising, single point] under setting [2]. For `O=C(CCc1nnc(Cc2ccc3c(c2)OCO3)o1)NCc1nc2ccccc2s1`, under setting [2], the AC50 is 12.6 µM [falling, partial curve]. Take `COc1ccc(Br)cc1CN(C)CC(=O)Nc1c(Cl)ccc(C)c1Cl`: the AC50 under setting [2] was 31.6 µM [rising, single point].

Consider `CCCNC(=O)c1ccccc1NC(=O)c1ccccc1N(C)S(=O)(=O)c1ccc(C)cc1`, for which, under setting [2], the AC50 was 17.8 µM [rising, single point]. The same measure, in the same setting: as for `COc1ccc(S(=O)(=O)Nc2cccc(SC)c2)cc1OC`, the figure is 15.8 µM [rising, single point]; as for `CCc1nc2c(c(=O)c3ccccc3n2C)c(=O)n1CCc1ccc(OC)cc1`, 10 µM [rising, partial curve]. In the case of `O=c1[nH]c2ccc(Br)cc2c(-c2ccccc2)c1CN1CCOCC1`, the AC50 under setting [1] is 35.5 µM [rising, single point]. Take `Cc1ccc(S(=O)(=O)N/N=C\c2cn(-c3ccccc3)nc2-c2ccccc2)cc1`: the AC50 runs as follows: under setting [1], 22.4 µM [falling, partial curve, poor fit]; under setting [2], 35.5 µM [falling, single point]. As for `COc1ccc(C(C)n2c(C)c3c(C)nnc(C)c3c2C)cc1` (configuration not stated), the AC50 is, setting by setting: under setting [1], 35.5 µM [falling, single point]; under setting [2], 31.6 µM [falling, partial curve, poor fit].
